Laboratory results published in the supplement of paper PMC10849652.
This is one part of the list.

The chains behind the UniProt entries cited, without tags or fusion partners. Where a name states a change or a piece, a line headed by the entry shows the natural chain unless it says otherwise.
UniProt Q8IX07: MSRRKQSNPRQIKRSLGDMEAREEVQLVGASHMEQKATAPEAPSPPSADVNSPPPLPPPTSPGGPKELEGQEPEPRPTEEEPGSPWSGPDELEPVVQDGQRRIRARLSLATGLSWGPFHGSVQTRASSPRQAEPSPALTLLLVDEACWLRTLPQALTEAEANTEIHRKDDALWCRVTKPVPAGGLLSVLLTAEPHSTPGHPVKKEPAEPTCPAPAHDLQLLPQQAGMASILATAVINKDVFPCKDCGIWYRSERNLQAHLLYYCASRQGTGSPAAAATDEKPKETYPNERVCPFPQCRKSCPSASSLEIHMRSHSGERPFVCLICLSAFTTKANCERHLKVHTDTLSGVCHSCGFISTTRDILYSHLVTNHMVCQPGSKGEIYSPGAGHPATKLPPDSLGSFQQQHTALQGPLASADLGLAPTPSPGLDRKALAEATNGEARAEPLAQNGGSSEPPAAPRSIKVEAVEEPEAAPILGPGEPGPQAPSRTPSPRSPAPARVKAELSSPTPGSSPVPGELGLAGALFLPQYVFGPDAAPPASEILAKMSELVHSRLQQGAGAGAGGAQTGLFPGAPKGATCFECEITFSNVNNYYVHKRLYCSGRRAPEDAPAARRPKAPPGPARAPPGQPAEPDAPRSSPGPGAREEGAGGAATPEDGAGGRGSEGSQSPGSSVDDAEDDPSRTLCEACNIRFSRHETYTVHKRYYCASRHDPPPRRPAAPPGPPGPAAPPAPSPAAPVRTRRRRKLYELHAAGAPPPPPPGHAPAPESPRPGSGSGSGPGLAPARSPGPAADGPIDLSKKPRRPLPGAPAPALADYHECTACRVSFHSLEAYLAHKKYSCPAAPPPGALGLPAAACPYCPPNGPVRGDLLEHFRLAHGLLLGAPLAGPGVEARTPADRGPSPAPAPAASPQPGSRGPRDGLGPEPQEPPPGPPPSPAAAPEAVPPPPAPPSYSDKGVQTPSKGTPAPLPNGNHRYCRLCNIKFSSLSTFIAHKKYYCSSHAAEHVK
UniProt Q8N4Q0: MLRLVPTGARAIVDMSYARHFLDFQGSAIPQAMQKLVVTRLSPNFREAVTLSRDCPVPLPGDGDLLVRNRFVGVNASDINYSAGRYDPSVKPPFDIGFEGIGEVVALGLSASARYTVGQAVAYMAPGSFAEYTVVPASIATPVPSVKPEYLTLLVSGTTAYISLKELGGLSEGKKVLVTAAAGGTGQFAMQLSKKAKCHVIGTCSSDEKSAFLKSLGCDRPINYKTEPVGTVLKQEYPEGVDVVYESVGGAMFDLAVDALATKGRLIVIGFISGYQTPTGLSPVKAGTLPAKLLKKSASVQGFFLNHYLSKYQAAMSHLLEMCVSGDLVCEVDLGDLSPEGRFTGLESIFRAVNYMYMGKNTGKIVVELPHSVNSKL
UniProt P16989, whole entry, looked up: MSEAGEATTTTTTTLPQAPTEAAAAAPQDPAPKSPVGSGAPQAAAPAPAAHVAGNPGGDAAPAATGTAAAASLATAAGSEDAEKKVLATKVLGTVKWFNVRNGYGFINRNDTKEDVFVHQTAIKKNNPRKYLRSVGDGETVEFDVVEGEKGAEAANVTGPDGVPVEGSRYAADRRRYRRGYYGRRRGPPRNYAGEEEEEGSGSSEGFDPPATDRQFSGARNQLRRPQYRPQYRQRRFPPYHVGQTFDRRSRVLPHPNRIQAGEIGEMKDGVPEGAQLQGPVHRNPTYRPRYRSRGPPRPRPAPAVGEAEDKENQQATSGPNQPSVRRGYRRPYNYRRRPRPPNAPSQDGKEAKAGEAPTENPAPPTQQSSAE
UniProt Q8IWR0: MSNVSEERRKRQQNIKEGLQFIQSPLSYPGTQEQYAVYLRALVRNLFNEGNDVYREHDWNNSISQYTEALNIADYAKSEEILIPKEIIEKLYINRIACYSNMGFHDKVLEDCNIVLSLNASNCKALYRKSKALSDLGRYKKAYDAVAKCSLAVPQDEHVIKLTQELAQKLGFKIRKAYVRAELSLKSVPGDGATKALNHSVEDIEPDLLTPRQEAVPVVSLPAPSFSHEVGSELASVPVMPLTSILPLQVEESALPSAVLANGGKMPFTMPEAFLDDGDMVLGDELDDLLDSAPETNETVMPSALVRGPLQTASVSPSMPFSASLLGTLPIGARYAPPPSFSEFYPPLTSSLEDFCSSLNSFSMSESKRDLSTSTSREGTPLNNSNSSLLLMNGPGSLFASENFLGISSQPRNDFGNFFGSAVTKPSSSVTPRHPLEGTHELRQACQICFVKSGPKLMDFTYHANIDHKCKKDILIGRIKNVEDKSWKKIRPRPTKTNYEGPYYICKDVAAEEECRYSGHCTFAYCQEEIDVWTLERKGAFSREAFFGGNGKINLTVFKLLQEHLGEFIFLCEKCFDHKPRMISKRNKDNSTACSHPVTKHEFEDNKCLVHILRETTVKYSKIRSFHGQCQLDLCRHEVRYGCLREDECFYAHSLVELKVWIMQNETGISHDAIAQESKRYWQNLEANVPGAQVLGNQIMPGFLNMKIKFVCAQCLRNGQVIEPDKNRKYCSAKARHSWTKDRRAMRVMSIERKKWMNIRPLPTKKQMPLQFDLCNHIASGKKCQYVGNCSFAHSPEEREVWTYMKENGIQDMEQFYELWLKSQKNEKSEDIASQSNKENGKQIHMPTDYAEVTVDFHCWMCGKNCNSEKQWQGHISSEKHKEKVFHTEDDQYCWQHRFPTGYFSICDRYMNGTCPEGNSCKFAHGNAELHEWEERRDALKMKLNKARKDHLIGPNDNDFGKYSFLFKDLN
UniProt Q9H8U3: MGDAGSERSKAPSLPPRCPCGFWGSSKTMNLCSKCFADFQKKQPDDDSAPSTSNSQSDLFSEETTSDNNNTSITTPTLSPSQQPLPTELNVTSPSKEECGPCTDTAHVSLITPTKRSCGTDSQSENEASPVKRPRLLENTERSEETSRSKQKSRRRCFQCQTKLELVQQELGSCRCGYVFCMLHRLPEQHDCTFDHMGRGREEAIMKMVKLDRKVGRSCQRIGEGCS
UniProt O75191: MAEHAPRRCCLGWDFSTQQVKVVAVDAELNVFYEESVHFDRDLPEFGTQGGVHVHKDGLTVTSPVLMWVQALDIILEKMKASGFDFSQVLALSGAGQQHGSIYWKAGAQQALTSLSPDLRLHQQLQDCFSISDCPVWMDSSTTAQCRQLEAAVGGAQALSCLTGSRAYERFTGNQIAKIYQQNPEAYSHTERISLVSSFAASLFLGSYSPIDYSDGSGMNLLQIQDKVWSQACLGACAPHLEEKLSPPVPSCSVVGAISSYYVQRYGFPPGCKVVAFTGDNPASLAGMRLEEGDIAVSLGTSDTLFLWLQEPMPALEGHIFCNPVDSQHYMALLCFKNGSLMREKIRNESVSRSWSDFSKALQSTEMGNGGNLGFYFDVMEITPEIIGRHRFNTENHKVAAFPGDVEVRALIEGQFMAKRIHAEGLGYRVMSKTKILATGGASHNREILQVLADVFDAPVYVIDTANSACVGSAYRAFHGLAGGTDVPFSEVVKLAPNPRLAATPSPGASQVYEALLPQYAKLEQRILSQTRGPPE
UniProt O75152: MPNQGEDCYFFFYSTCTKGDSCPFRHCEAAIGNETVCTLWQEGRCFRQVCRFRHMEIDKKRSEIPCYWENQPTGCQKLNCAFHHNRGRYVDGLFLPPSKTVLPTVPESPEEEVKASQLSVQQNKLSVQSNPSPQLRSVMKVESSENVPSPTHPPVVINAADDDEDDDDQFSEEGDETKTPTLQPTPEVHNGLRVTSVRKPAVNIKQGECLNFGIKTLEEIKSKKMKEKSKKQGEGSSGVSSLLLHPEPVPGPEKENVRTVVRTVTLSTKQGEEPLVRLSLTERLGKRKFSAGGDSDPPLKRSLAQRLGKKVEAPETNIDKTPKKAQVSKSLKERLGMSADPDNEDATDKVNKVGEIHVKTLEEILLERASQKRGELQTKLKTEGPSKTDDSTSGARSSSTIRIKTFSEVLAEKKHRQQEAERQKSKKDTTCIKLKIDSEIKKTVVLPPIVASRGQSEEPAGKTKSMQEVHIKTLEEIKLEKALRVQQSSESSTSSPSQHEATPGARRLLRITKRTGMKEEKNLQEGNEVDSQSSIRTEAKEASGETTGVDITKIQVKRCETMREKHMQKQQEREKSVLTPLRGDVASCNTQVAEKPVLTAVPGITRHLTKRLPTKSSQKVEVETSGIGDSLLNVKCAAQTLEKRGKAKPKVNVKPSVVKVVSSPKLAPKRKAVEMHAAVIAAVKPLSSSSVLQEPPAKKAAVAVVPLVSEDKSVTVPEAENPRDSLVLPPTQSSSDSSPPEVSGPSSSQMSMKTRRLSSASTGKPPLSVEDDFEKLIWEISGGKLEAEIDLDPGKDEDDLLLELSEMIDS
UniProt Q9H0D6: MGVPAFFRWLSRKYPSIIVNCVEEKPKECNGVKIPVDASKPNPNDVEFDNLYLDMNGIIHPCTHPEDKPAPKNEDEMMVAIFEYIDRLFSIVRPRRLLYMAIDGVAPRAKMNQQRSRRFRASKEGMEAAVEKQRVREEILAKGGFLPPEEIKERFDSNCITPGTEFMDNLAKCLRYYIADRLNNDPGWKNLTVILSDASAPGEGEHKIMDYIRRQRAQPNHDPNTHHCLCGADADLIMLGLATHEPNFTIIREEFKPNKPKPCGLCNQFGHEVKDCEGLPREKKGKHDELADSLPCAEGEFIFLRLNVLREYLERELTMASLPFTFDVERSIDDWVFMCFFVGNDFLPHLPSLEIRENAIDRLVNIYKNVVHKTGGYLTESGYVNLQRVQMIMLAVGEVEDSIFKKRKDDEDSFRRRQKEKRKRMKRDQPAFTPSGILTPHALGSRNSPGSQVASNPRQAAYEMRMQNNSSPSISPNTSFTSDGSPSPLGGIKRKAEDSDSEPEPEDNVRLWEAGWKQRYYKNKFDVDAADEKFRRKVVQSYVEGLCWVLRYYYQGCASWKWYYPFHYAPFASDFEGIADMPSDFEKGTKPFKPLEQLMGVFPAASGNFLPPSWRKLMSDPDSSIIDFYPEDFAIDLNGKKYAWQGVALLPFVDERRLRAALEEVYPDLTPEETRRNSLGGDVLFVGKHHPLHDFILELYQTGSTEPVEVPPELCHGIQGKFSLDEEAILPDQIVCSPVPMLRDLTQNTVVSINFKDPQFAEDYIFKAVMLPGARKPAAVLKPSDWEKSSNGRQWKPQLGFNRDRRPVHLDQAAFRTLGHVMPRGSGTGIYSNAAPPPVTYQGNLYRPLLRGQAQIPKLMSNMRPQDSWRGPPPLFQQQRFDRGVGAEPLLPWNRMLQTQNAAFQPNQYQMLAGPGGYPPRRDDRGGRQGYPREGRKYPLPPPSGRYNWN
UniProt Q86T24: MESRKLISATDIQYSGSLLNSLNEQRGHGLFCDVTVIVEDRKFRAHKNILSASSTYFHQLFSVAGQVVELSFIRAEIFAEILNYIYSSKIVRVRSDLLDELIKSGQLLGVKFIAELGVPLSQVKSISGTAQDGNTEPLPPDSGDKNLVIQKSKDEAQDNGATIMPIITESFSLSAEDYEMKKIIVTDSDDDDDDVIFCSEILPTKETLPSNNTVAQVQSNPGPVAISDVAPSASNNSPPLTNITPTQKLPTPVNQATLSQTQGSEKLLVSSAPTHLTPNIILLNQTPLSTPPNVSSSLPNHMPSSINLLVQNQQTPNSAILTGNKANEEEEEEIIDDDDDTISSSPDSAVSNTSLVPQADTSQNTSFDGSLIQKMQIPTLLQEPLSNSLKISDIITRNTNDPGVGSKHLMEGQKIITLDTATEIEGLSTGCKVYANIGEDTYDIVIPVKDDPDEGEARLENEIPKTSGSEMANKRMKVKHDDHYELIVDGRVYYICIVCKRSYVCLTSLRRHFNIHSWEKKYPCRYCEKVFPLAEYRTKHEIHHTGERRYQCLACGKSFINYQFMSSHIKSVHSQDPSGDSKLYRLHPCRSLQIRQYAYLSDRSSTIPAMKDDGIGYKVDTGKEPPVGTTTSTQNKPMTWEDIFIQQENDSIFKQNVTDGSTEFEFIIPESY

Tests used:
Assay in all cases: log2 fold change, soluble protein after heating vs DMSO (PISA); higher = thermal stabilisation; K562 lysate, 10 uM; active = over 0.2 and 3.5 SD of the protein, either way, in both replicates (recomputed)
[1] = compound: C1=CC=C(C=C1)[C@H](COC2=CC3=C(C=C2)NC(=O)N3)NC(=O)C4=CC=CN(C4=O)CC5=CC(=C(C=C5)F)F
Procedure, shortened: (§1)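 K562 pellets were dounce-homogenised in PBS pH 7.4 containing 1 mM MgCl2, and the crude extract, at 1 mg/mL protein, was exposed to 10 μM compound for 30 min. Aliquots were heated for 3 min across 48°C-58°C, pooled, brought to 0.5% NP-40 at 4°C and spun at 21,000xg for 90 min, with the supernatant taken as soluble protein. TMTpro 16plex LC-MS/MS with equalised channel sums quantified that protein. Values are log-two fold changes in thermal stability relative to solvent controls, taken from duplicates.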

[2] = compound: CC1=C(SC2=C1C(=N[C@H](C3=NN=C(N32)C)CC(=O)N)C4=CC=C(C=C4)Cl)C
Procedure, shortened: as §1

[3] = compound: CC1=C2C(=CC=C1)N=C(N(C2=O)C3=CC=CC=C3C)CN4C=NC5=C(N=CN=C54)N
Procedure, shortened: as §1

[4] = compound: Cc1sc2c(c1C)C(c1ccc(Cl)cc1)=N[C@@H](CC(=O)OC(C)(C)C)c1nnc(C)n1-2
Procedure, shortened: as §1

[5] = compound: c1ccc([C@@H]2C[C@H]2NC2CCNCC2)cc1
Procedure, shortened: as §1

Measured: log2 fold change

ZFPM1 (UniProt Q8IX07)
inactive: [1] 0.073 | [2] -0.033 | [3] -0.012 | [4] -0.036 | [5] 0.078

ZADH2 (UniProt Q8N4Q0)
inactive: [1] -0.02 | [2] -0.031 | [3] 0.018 | [4] -0.183 | [5] 0.028

YBX3 (UniProt P16989)
inactive: [1] 0.085 | [2] -0.006 | [3] -0.015 | [4] -0.034 | [5] -0.02

ZC3H7A (UniProt Q8IWR0)
inactive: [1] -0.007 | [2] -0.023 | [3] 0.003 | [4] -0.053 | [5] 0.199

ZFAND3 (UniProt Q9H8U3)
inactive: [1] -0.016 | [2] 0.055 | [3] -0.011 | [4] -0.083 | [5] 0.043

XYLB (UniProt O75191)
inactive: [1] -0.032 | [2] -0.072 | [3] 0.004 | [4] 0.031 | [5] -0.051

ZC3H11A (UniProt O75152)
inactive: [1] -0.015 | [2] 0 | [3] 0.081 | [4] 0.023 | [5] 0.063

XRN2 (UniProt Q9H0D6)
inactive: [1] 0.037 | [2] -0.029 | [3] -0.015 | [4] 0.019 | [5] -0.009

ZBTB33 (UniProt Q86T24)
inactive: [1] 0.046 | [2] -0.082 | [3] 0.003 | [4] 0 | [5] -0.015
